From patent US20260152559A1 (Janssen / Centocor, published 2026) come the findings set out here.

By UniProt entry, the sequences of proteins in these tests, tags left out. Where a name states a change or a piece, a line headed by the entry shows the natural chain unless it says otherwise.
UniProt P07766: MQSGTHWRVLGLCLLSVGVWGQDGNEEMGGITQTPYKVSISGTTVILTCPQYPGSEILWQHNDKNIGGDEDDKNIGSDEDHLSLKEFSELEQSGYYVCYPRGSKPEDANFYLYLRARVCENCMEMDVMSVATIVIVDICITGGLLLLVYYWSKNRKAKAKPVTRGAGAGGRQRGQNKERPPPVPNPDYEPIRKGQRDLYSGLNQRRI

Positions count from the first letter of the chain named. No constants are given. Whether binding was seen depends on the method and setting. Some results given as binding are weak or reduced against the parent protein; the word gives no strength.

The target of test [1] is human CD3 on cells (Jurkat cells, primary human T cells) (human) (UniProt P07766). As to the kind of experiment: flow cytometry, hybridoma supernatant on Jurkat cells. On the technique in general: A flow cytometer gives signals particle by particle.
For test [2] the target is unchanged. As to the kind of experiment: flow cytometry, hybridoma supernatant on primary human T cells, anti-mouse IgG Alexa-647.
The target is the same in test [3]. Put plainly: flow cytometry, hybridoma supernatant on primary pan T cells, anti-mouse IgG Alexa-647 detection.
Test [4] has the same target. Put plainly: binding screen on Jurkat cells.
For test [5] the target is unchanged. Put plainly: flow cytometry; E. coli scFv supernatant on human T cells.

B1: clone 065_D03 (hybridoma supernatant) (antibody, V domains shown)
VH: EVQLVESGGGLVKPGGSLRLSCAASGFTFSRYNMNWVRQAPGKGLEWVSSISTSSNYIYYADSVKGRFTFSRDNAKNSLDLQMSGLRAEDTAIYYCTRGWGPFDYWGQGTLVTVSS
VL: DILLTQSPGILSVSPGERVSFSCRARQSIGTAIHWYQQRTNGSPRLLIKYASESISGIPSRFSGSGSGTDFTLTINSVESEDIADYYCQQSNSWPYTFGGGTKLEIK
Consider B1, for which the binding entry in test [1], in test [2] and in test [3] was “binds” each time.

B2: CD3B815 (antibody, human IgG1, kappa, V domains shown)
VH: B1 VH
VL: DILLTQSPGILSVSPGERVSFSCRARQSIGTAIHWYQQRTNGSPRLLIKYASESISGIPSRFSGSGSGTDFTLTINSVESEDIADYYCQQSNSWPYTFGGGTKLEIKR
For B2, the binding result in test [4] is recorded as “binds”.

B3: CD3W234-HL-E.c. (scFv)
scFv: EVQLVESGGGLVKPGGSLRLSCAASGFTFSRYNMNWVRQAPGKGLEWVSSISTSSNYIYYADSVKGRFTFSRDNAKNSLDLQMSGLRAEDTAIYYCTRGWGPFDYWGQGTLVTVSSGTEGKSSGSGSESKSTDILLTQSPGILSVSPGERVSFSCRARQSIGTAIHWYQQRTNGSPRLLIKYASESISGIPSRFSGSGSGTDFTLTINSVESEDIADYYCQQSNSWPYTFGGGTKLEIKGPGGQHHHHHHGAYPYDVPDYAS
For the molecule B3, in test [5], the binding entry was “binds”.

B4: CD3W248-HL-E.c. (scFv)
scFv: B3 scFv with N224G
In the case of B4, the binding entry in test [5] is reported as “binds”.

B5: CD3W238-HL-E.c. (scFv)
scFv: EVQLVESGGGLVKPGGSLRLSCAASGFTFSRYNMNWVRQAPGKGLEWVSSISTSSNYIYYADSVKGRFTFSRDNAKNSLDLQMSGLRAEDTAIYYCTRGWGPFDYWGQGTLVTVSSGTEGKSSGSGSESKSTDIQMTQSPSSLSASVGDRVTITCRARQSIGTAIHWYQQKPGKAPKLLIYYASESISGVPSRFSGSGSGTDFTLTISSLQPEDFATYYCQQSNSWPYTFGQGTKLEIKGPGGQHHHHHHGAYPYDVPDYAS
Take B5: in test [5], the binding entry is listed as “binds”.

B6: CD3W245-HL-E.c. (scFv)
scFv: B5 scFv with Y181K, N224G
For B6, the binding entry in test [5] was “binds”.

B7: CD3W243-HL-E.c. (scFv)
scFv: B5 scFv with Y181K, L210V
B7: the binding entry in test [5] is recorded as “binds”.

B8: CD3W242-HL-E.c. (scFv)
scFv: B5 scFv with Y181K
Turning to B8, the binding result in test [5] was “binds”.

B9: CD3W246-HL-E.c. (scFv)
scFv: B5 scFv with Y181K, L210V, N224G
In the case of B9, the binding result in test [5] is given as “binds”.

B10: CD3W244-HL-E.c. (scFv)
scFv: B5 scFv with L210V, N224G
Regarding B10, the binding entry in test [5] is listed as “binds”.

B11: CD3W247-HL-E.c. (scFv)
scFv: B5 scFv with N224G
In the case of B11, the binding result in test [5] is on record as “binds”.
